PubChem BioAssay AID1159578 – Peter MacCallum Cancer Centre | 2015

Purpose: 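siRNA pools altering how lymphatic endothelial cells close a scratch wound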 (primary screen)
System: human lymphatic endothelial cells
Knock-down reagent: siRNA pool against human genes, 40 nM
Timing: 48 h after transfection
Detection: 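High-content imaging of dye-stained cells in a scratch assay measures filled wound area and nuclei per well; duplicate means given as ratio to mock and robust z-score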
Reading the numbers: migration robust z-score: higher = faster migration into the scratch; nuclei per well: higher = more cells in the well
Call rule: 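Migration changed when robust z exceeds 2 or falls below -2 and mean nuclei number is at least 3300; otherwise not called changed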
Meaning of the calls: active = migration changed; inactive = no migration change, or too few cells
Here is a random part of about 18,000 reagents tested. About 1,030 of them (5.7%) were called active. 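Inactive calls also include pools with fewer than 3300 nuclei, whose migration was not assessed.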 The raw values are shown without normalisation. A number with no mark means an inactive call. Not all columns of the deposit are shown.

GRM6
- migration robust z-score: 1.17
- nuclei per well, duplicate mean: 5903

ZBTB39
- migration robust z-score: -0.34
- nuclei per well, duplicate mean: 4225

MFF
- migration robust z-score: -0.99
- nuclei per well, duplicate mean: 5551

SPATA19
- migration robust z-score: 2.05 (active)
- nuclei per well, duplicate mean: 5890

SPINK6
- migration robust z-score: -0.72
- nuclei per well, duplicate mean: 5704

FBXL3
- migration robust z-score: -1.14
- nuclei per well, duplicate mean: 5494

IL13
- migration robust z-score: -1.73
- nuclei per well, duplicate mean: 4102

C1orf122
- migration robust z-score: 1.94
- nuclei per well, duplicate mean: 5666

ANXA6
- migration robust z-score: -0.28
- nuclei per well, duplicate mean: 5652

PLCL2
- migration robust z-score: 0.52
- nuclei per well, duplicate mean: 6821

RPS15A
- migration robust z-score: -3.36 (active)
- nuclei per well, duplicate mean: 3308

SPAG1
- migration robust z-score: -1.64
- nuclei per well, duplicate mean: 4264

2 entries from above, set out differently:
target,migration robust z-score,"nuclei per well, duplicate mean"
GRM6,1.17,5903
ZBTB39,-0.34,4225
